The nature of the assay: qHTS Assay for Lipid Storage Modulators in Drosophila S3 Cells.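 As to cell number change: cells counted by Cell Tracker Red CMTPX staining in the red channel.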 Particulars: BODIPY lipid droplet fluorescence, 18-24 h; for cell number change: measured here: cell count max response, cells fed with added oleic acid. A digest of the protocol: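 Drosophila S3 cells got compounds at several concentrations plus oleic acid (400 uM solution). Laser-scanning cytometry with 488 nm excitation read lipid droplets at 500-530 nm and cells at 575-640 nm. Percent activity was relative to 20 uM Triacsin C.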

Setting [1] is: measured here: lipid fluorescence (Fed channel) AC50, cells fed with added oleic acid.
Setting [2] is: measured here: cell number channel AC50, cells fed with added oleic acid.

As a reminder, the AC50 is the concentration giving half of the maximal activity seen.

This is one part of the list. Further columns of the screen follow, without active or inactive calls. Compounds called inactive in the main read-out are mostly missing here. The note in brackets gives the kind of curve behind each potency; many fits are weak.

Turning to `CC1(C)CC2(CCO1)CNC(=O)O2` (stereo not drawn), the cell number change is -28.5%. For the same compound, the AC50 under setting [1] was 2.91 µM [falling, full curve].
`O=[N+]([O-])c1ccc(N2CCN(C(=S)NCc3ccc(Cl)cc3)CC2)cc1`: the cell number change was -27.5%. Also, the AC50 under setting [1] is 29.1 µM [falling, single point].
For `Cc1ccc(C(=O)Nc2nc3ccccc3c(=O)s2)cc1`, the cell number change was -38.3%. Also, under setting [2], the AC50 was 5.17 µM [falling, full curve, poor fit]. The AC50 under setting [1] is 32.6 µM [falling, single point].
Take `O=S(=O)(c1ccc(SCc2ccccc2)nc1)N1CCCC1`: the cell number change was 1.2%.
As for `CCCn1c(NC(=O)c2ccc(F)cc2)nc2ccccc21`, the cell number change was -0.611%. In addition, under setting [2], the AC50 is 2.31 µM [rising, single point].
In the case of `CC(=O)Nc1ncc2c(n1)CC(c1ccco1)CC2=O` (stereo not drawn), the cell number change is 1.6%. Further, under setting [1], the AC50 was 2.31 µM [rising, single point].
Turning to `COc1cccc(C2CCCN2Cc2nc(-c3cnccn3)no2)c1` (stereo not drawn), the cell number change came out at 17.6%. For the same compound, the AC50 under setting [1] was 0.184 µM [rising, full curve, poor fit].
On to `NC(=O)c1c(/N=C/c2cccs2)sc2c1CCCC2`, for which the cell number change is 9.82%. Also, the AC50 under setting [1] is 29.1 µM [rising, single point].
For `Cc1nc2c3ccccc3nc(SCC(=O)N3CC(C)CC(C)C3)n2n1` (stereo not drawn), the cell number change is -21%. The AC50 under setting [2] is 2.59 µM [rising, partial curve]. Further, under setting [1], the AC50 was 4.61 µM [rising, partial curve].
Consider `COc1cc2c(cc1OC)C1O[C@](CCCCN3C(=O)c4ccccc4C3=O)(C2)Oc2c1c(=O)oc1ccccc21`, for which the cell number change was -2.47%. The AC50 under setting [1] was 2.99 µM [falling, single point].
For the compound `Cc1cc(C)nc(N/N=C/c2ccccc2Cl)n1`, the cell number change is 21.4%. Further, the AC50 under setting [1] is 14.6 µM [rising, partial curve].
Regarding `COc1cccc(CN2CCC(n3nccc3NC(=O)C3CC3)CC2)c1`, the cell number change worked out at 42.9%. In addition, under setting [2], the AC50 was 23.1 µM [rising, single point]. Also, the AC50 under setting [1] is 2.31 µM [rising, full curve, poor fit].
`CC(=O)Nc1ccc(S(=O)(=O)N2CCN(C(=O)N3CCCCC3)CC2)cc1`: the cell number change came to 24.1%. Besides, the AC50 under setting [1] was 0.58 µM [falling, single point].
For `COc1ccc(NS(=O)(=O)c2cc(NC(=O)c3cnc(C)cn3)ccc2N2CCCC2)cc1`, the cell number change came to 4.4%. Also, the AC50 under setting [1] is 20.6 µM [rising, single point].
In the case of `O=C(CCCN1C(=O)/C(=C\c2cccs2)SC1=S)Nc1cccc(C(=O)O)c1`, the cell number change worked out at 0.407%. In addition, under setting [2], the AC50 was 6.51 µM [falling, single point]. Under setting [1], the AC50 is 6.51 µM [falling, single point].
`O=C(NO)c1ccccc1C(F)(F)F`: the cell number change is -15.6%. For the same compound, under setting [1], the concentration at half-maximal activity (AC50) was 29.1 µM [falling, single point].
Turning to `Cc1cc(C)c(-c2nc3ccccc3s2)[nH]1`, the cell number change is 26.2%.
On the same count and under the same terms, to `CCOC(=O)[C@H]1[C@H]2COc3ccc(OC)cc3[C@@H]2N2C(=O)CN(Cc3ccco3)C(=O)[C@@]12C` belongs -9.44%; to `Cc1c(C(=O)c2ccccc2C(=O)O)sc2ccccc12`, -11.1%.
Regarding `CC12CCC(=O)N1C(C(=O)NCCN1C(=O)S/C(=C\c3ccc(OC(F)F)cc3)C1=O)CS2` (stereo not drawn), the cell number change was -26.9%. Besides, the AC50 under setting [1] is 18.4 µM [falling, single point].
Take `Cc1cc(COC(=O)C2N3C(=O)[C@@H](NC(=O)COc4ccccc4)[C@H]3SC2(C)C)on1` (stereo partly drawn): the cell number change amounted to 29.4%.
Consider `COc1ccc(NC(=O)Nc2cnccn2)c(OC)c1`, for which the cell number change is 5.49%. The AC50 under setting [2] is 0.092 µM [rising, full curve, poor fit].
`NCCC1CCCC(CCN)N1` (stereo not drawn): the cell number change was -19.9%. Further, the AC50 under setting [2] is 0.731 µM [falling, full curve]. The AC50 under setting [1] was 3.66 µM [falling, single point].
On to `CCc1ccc2[nH]c(=O)c(CN(CCN(C)C)C(=O)Nc3ccccc3)cc2c1`, for which the AC50 is, setting by setting: under setting [2], 6.51 µM [falling, single point]; under setting [1], 5.8 µM [falling, single point].
`O=C(Nc1ccccc1N1CCN(C(=O)c2ccc(Cl)cc2)CC1)c1cc2ccccc2o1`: the cell number change is 159%. Besides, the AC50 under setting [2] is 20.6 µM [rising, partial curve]. The AC50 under setting [1] is 0.651 µM [rising, single point].
For `Cn1c2c(c(=O)n(C)c1=O)C(c1ccc(O)cc1)Nc1ccccc1O2` (stereo not drawn), the AC50 was 0.82 µM [rising, full curve, poor fit] under setting [2] and 20.6 µM [rising, single point] under setting [1].
As for `Cc1c(C(=O)N/N=C/c2ccc(N3CCOCC3)cc2)nc2ccccn12`, the cell number change was found to be 5.83%. Moreover, under setting [1], the AC50 was 1.46 µM [rising, single point].
Regarding `CC(=O)NS(=O)(=O)c1ccc(N2C(=O)CC(Sc3nccc(C)n3)C2=O)cc1` (stereo not drawn), the cell number change is -4.56%.
As for `CC(=O)Nc1ccc(OCC(O)Cn2ccnc2)cc1` (stereo not drawn), the AC50 under setting [1] is 0.13 µM [rising, full curve].
For `C/C(=N\NC(=O)c1c(Cl)cnn1C)c1cccnc1`, the cell number change is 0.829%. Also, the AC50 under setting [1] is 6.51 µM [falling, single point].
Turning to `Cn1cccc1/C=N/NC(N)=S`, the cell number change is -28.1%. In addition, the AC50 under setting [2] was 4.61 µM [falling, full curve, poor fit]. Under setting [1], the AC50 is 4.61 µM [falling, full curve, poor fit].
Regarding `O=C(Nc1ccc(N2CCOCC2)cc1)c1cccc(S(=O)(=O)N2CCC(Cc3ccccc3)CC2)c1`, the cell number change was found to be 44%. In addition, under setting [2], the AC50 was 16.4 µM [rising, partial curve]. For the same compound, the concentration at half-maximal activity (AC50) under setting [1] is 20.6 µM [rising, partial curve].
Regarding `Cc1ccc(N(C(=O)c2snc(C(N)=O)c2N)C(CC(C)C)C(=O)NC2CCCC2)cc1` (stereo not drawn), the cell number change was -17.1%. The AC50 under setting [2] was 0.00651 µM [falling, full curve, poor fit].
As for `CCCCNc1nnc(SCC(=O)c2c(N)n(CCC)c(=O)[nH]c2=O)s1`, the cell number change amounted to 13.1%. Further, the AC50 under setting [1] is 29.1 µM [rising, single point].
Turning to `c1ccc(C2(CNc3ccccn3)CCCC2)cc1`, the AC50 under setting [2] was 4.61 µM [rising, single point].
With `COc1ccc(OCC(=O)Nc2ccc3c(c2)n(C)c(=O)n3C)cc1`, the cell number change was 13.5%. Also, the AC50 under setting [1] was 14.6 µM [rising, single point].
On to `CCc1ccc(CNC(=O)Cc2ccc(NC(=O)C3=C(C)OCCS3)cc2)cc1`, for which the AC50 under setting [1] is 3.66 µM [rising, partial curve].
As to `COc1cc(C2C(C(=O)c3ccco3)=C(O)C(=O)N2Cc2cccnc2)cc(OC)c1OC` (stereo not drawn), the cell number change is 11.6%.
As for `Cc1ccc(NC(=O)NC(=O)COc2ccc(Cl)cc2Cl)c(C)c1`, the cell number change was -0.87%. Moreover, under setting [1], the AC50 was 0.164 µM [rising, full curve, poor fit].
For the compound `CN1c2ccccc2Oc2c(c(=O)n(C)c(=O)n2C)C1c1cccc([N+](=O)[O-])c1` (stereo not drawn), the cell number change is 14.7%.
`CCOC(=O)c1c(NC(=O)COC(=O)c2nc(Cl)ccc2Cl)sc2c1CCC2`: the cell number change amounted to 19.5%. Moreover, the AC50 under setting [1] was 5.17 µM [rising, full curve, poor fit].
Consider `CC(Sc1nnc(-c2ccco2)n1-c1ccccc1)C(=O)NCC1CCCO1` (stereo not drawn), for which the cell number change is -31.4%. In addition, the AC50 under setting [2] is 14.6 µM [falling, partial curve, poor fit]. Besides, the AC50 under setting [1] was 20.6 µM [falling, single point].
As for `Cc1ccc(S(=O)(=O)NC(=O)COc2ccccc2C(N)=O)cc1`, the cell number change was -25.9%.
On to `CC(C)(C)NC(=O)C(Cc1ccccc1)NS(=O)(=O)c1cccc2nsnc12` (stereo not drawn), for which the cell number change is -121%. Also, the AC50 under setting [2] is 29.1 µM [falling, partial curve]. For the same compound, the AC50 under setting [1] was 0.411 µM [falling, partial curve, poor fit].
Take `Cn1c2c(c(=O)n(C)c1=O)C(c1ccccc1Cl)CC(=O)N2` (stereo not drawn): the cell number change was -43.9%. Also, the AC50 under setting [2] was 23.1 µM [falling, single point]. Besides, the AC50 under setting [1] was 0.82 µM [falling, full curve].
Take `O=C(NC1CCCCCC1)C(=S)NCCc1ccccc1`: the cell number change came out at 2.02%.
For the compound `Cc1ccc(NC(=O)CCS(=O)(=O)c2ccc(Br)s2)cc1`, the AC50 under setting [1] is 6.51 µM [rising, single point].
Turning to `COC(=O)CCCC1=CC2=C(c3ccccc3)C(=O)C(C)(OC(=O)C3CCCC3)C(=O)C2=CN1CC(C)C` (stereo not drawn), the cell number change was -16.4%. The AC50 under setting [1] was 16.4 µM [falling, single point].
Take `CCOC(=O)C1CCN(C(=O)CN(c2cccc(OC)c2)S(=O)(=O)c2ccccc2)CC1`: the cell number change is 9.12%.
On to `Nc1nc(NC(=O)/C=C/c2ccccc2)nn1-c1ccccc1`, for which the cell number change turned out to be 19.6%. Besides, the AC50 under setting [1] was 0.13 µM [rising, full curve, poor fit].
With `O=C(NCc1ccncc1)C1CCCN(S(=O)(=O)c2ccc(Br)cc2)C1` (stereo not drawn), under setting [1], the AC50 was 29.1 µM [rising, single point].
Consider `COc1ccc2c(c1)c(=O)c(C(=O)c1ccccc1)cn2Cc1ccc(C)cc1`, for which the cell number change is 24.4%. Moreover, the AC50 under setting [1] is 1.64 µM [rising, partial curve].
As for `NNC(=O)c1ccc(COc2cccc3cccnc23)cc1`, the cell number change was 6.64%.
In the case of `Cc1ccccc1OCCNC(=O)/C=C/c1ccccc1`, the cell number change stood at 42.9%. For the same compound, the AC50 under setting [2] was 18.4 µM [rising, single point]. Moreover, the AC50 under setting [1] is 13 µM [rising, partial curve].
For `CC(=O)c1cccc(NC(=O)CN2C(=O)NC3(CCCCCCC3)C2=O)c1`, the cell number change was -17.3%.
Regarding `COc1ccc(C(=O)NC(=S)Nc2ccccc2N2CCOCC2)cc1[N+](=O)[O-]`, under setting [1], the AC50 is 0.146 µM [rising, partial curve, poor fit].
Turning to `O=C1CCC2(C(=O)O)Sc3ccccc3N12` (stereo not drawn), the cell number change is -57.2%. The AC50 under setting [2] was 0.103 µM [falling, full curve, poor fit].
As to `O=C(CP(=O)(c1ccccc1)c1ccccc1)Nc1nc2ccc(Cl)cc2s1`, the AC50 under setting [1] is 5.8 µM [rising, single point].
With `O=C(Nc1ccc(Br)cc1)C1C2C=CC3(O2)C1C(=O)N(CCN1CCCCC1)C3C(=O)NC1CCCCC1` (stereo not drawn), the cell number change was -6.05%. The AC50 under setting [1] was 4.11 µM [falling, single point].
On to `COc1ccc(-c2cc(C(=O)NCC3CCCO3)c3cc(C(C)C)ccc3n2)cc1` (stereo not drawn), for which the cell number change is -3.79%. The AC50 under setting [2] is 0.058 µM [rising, partial curve]. Moreover, the half-maximal activity concentration (AC50) under setting [1] is 11.6 µM [falling, single point].

Source of the values: PubChem BioAssay AID2685 (National Center for Advancing Translational Sciences (NCATS), 2010).
